Laboratory results: PubChem BioAssay AID504744 (Drosophila RNAi Screening Center, 2011)

- Test: 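Find genes whose loss alters insulin-driven dAkt phosphorylation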 (primary screen)
- System: Drosophila Kc167 cells
- Reagents: long dsRNA against Drosophila genes, 250 ng dsRNA per well of a 384-well plate
- Timing: 3 days of knock-down, then overnight serum-free starvation before stimulation
- Treatment: bovine insulin at 387 nM for 10 minutes after 12 h without serum
- Measured: 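Per-well phospho-dAkt level from an in-cell fluorescent antibody stain, divided by a DNA-dye signal; log2 residuals turned into z-scores that take cell number into account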
- Active means: 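Under insulin, a gene counts as a hit if the average z-score of two replicates lies above 2.5 or below -2.5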
The screen tested about 23,000 reagents; below is an unselected part of those with a known target gene and a result. Of all reagents, 98 (0.43%) are marked active. 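Only hit calls are given; the phospho-dAkt signals, z-scores and hit direction were not deposited.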 Reagents against one gene are numbered here. A plus sign joins genes that one reagent is predicted to hit.

CG4709 scored inactive. CG9121 gave inactive. Against CG15729 (retired record), the entry reads inactive. Depletion of CG8915 gave: inactive. Silencing of Sfxn2 (Sideroflexin 2) resulted in: inactive. For CG13380 + CG4174 #1, the values are inactive.

Depletion of CG13380 + CG4174 #2 gave: inactive. For Strump (Strumpellin), the entry reads inactive. With knock-down of CG34296 the results were inactive. PIG-S (Phosphatidylinositol glycan anchor biosynthesis class S) #1 gave inactive. PIG-S (Phosphatidylinositol glycan anchor biosynthesis class S) #2 showed inactive. Depletion of PIG-S (Phosphatidylinositol glycan anchor biosynthesis class S) #3 came out at: inactive.

In a second layout: entries from further up.
gene | reagent | outcome
CG9121 | 1 | inactive
CG15729 (retired record) | 1 | inactive

The results go on.
Gmap (Golgi microtubule-associated protein) #1 scored inactive. With knock-down of Gmap (Golgi microtubule-associated protein) #2 the results were inactive. After knock-down of CG17349, the screen gave inactive. Fili (Fish-lips) #1 showed inactive. After knock-down of Fili (Fish-lips) #2 the results were inactive. Fili (Fish-lips) #3 gave inactive.

Depletion of tos (tosca) gave: inactive. fj (four-jointed) scored inactive. Knock-down of CG6012 gave: inactive. Usp14 (Ubiquitin specific protease 14) showed inactive. For cysu (Curly Su) the deposit lists inactive.
